Assay results from publication PMC7861375.
These are yes or no findings as the source states them, for the method shown. Some binding calls cover weakened binding; strength is not graded here.

Tests used:
Assay in all cases: SEC + other: negative-stain electron microscopy; TcA and TcdB2-TccC3 mixed in a 2:1 mole ratio (50 mM Tris pH 8.0, 100 mM NaCl, 5% glycerol), co-incubated at 4°C overnight, Superose 6 gel filtration; fractions by SDS-PAGE, fraction #14 by negative stain EM; both purified
[1] = biological target: TcdA1^W14-K1738S (Photorhabdus luminescens W14) (UniProt Q9RN43)
[2] = biological target: TcdA1^W14-W1721S (Photorhabdus luminescens W14) (UniProt Q9RN43)
[3] = biological target: TcdA1^W14-W1721S/K1738S (Photorhabdus luminescens W14) (UniProt Q9RN43)

Measured: binding

TcdB2-TccC3 fusion protein (P. luminescens W14) (from UniProt Q8GF99 1-1474; Q8GF97 1-960)
binds: all assays above
